Reference: the supplement of paper PMC10331698
± gives the standard deviation of the averaged measurements. Most values lie at the level of the controls, where differences are scatter.

What was measured:
Test in all cases: level (log10 ratio to DMSO vehicle control); higher = higher biomarker level / cell amount than vehicle control
[1] = compound: O=C(O)C(F)(F)C(F)(F)C(F)(F)C(F)(F)C(F)(F)C(F)(F)C(F)(F)C(F)F [9-H-Perfluorononanoic acid]; details: 2200 nM; in DMSO
Method: (§1)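 BioMAP Diversity Plus panel of 12 human primary cell co-culture systems (3C, 4H, LPS, SAg, BT, BF4T, BE3C, CASM3C, HDF3CGF, KF3CT, MyoF, Mphg). Compounds were added 1 h before stimulation and left for 24 h (MyoF 48 h; BT 72 h for soluble read-outs or 6 d for IgG). Biomarkers were read by ELISA, cytotoxicity by SRB, PBMC viability and proliferation by Alamar Blue. Each well value was divided by the mean of 8 DMSO control wells on the same plate and log10 transformed; duplicate blinded samples were tested at 4 concentrations.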

[2] = compound: OCC(F)(F)C(F)(F)C(F)(F)C(F)(F)C(F)(F)C(F)(F)C(F)(F)C(F)(F)C(F)(F)C(F)(F)C(F)(F)F [11:1 Fluorotelomer alcohol]; details: in DMSO
Method: as §1

[3] = compound: O=P(O)(O)CCC(F)(F)C(F)(F)C(F)(F)C(F)(F)C(F)(F)C(F)(F)C(F)(F)C(F)(F)F [((Perfluorooctyl)ethyl)phosphonic acid]; details: 2200 nM; in DMSO
Method: as §1

[4] = compound: O=C(O)C(F)(F)C(F)(F)C(F)(F)F [Perfluorobutanoic acid]; details: 2200 nM; in DMSO
Method: as §1

[5] = compound: C=CC(=O)OCC(F)(F)C(F)(F)C(F)(F)C(F)(F)COC(=O)C=C [1H,1H,6H,6H-Perfluorohexane-1,6-diol diacrylate]; details: 2200 nM; in DMSO
Method: as §1

[6] = compound: O=C(O)C(F)(F)C(F)(F)C(F)(F)C(F)(F)C(F)(F)C(F)(F)C(F)(F)C(F)(F)C(F)(F)C(F)(F)F [Perfluoroundecanoic acid]; details: in DMSO
Method: as §1

[7] = compound: C=C(C)C(=O)OCC(F)(F)C(F)(F)C(F)(F)F [2,2,3,3,4,4,4-Heptafluorobutyl methacrylate]; details: 2200 nM; in DMSO
Method: as §1

[8] = compound: OCCC(F)(F)C(F)(F)C(F)(F)C(F)(F)C(F)(F)C(F)(F)C(F)(F)C(F)(F)F [8:2 Fluorotelomer alcohol]; details: 2200 nM; in DMSO
Method: as §1

[9] = compound: FC(F)C(F)(F)COCC1CO1 [((2,2,3,3-Tetrafluoropropoxy)methyl)oxirane]; details: 2200 nM; in DMSO
Method: as §1

[10] = compound: FC(F)(F)C(F)(F)C(F)(F)C(F)(F)C(F)(F)C(F)(F)C(F)(F)I [1-Iodopentadecafluoroheptane]; details: in DMSO
Method: as §1

[11] = compound: O=C(O)C(F)(F)OC(F)(F)C(F)(F)OC(F)(F)C(=O)O [Perfluoro-3,6-dioxaoctane-1,8-dioic acid]; details: 2200 nM; in DMSO
Method: as §1

[12] = compound: O=C(O)C(F)(F)C(F)(F)OC(F)(F)F [Perfluoro-3-methoxypropanoic acid]; details: 2200 nM; in DMSO
Method: as §1

[13] = compound: FC(F)(F)C(F)(F)C(F)(F)C(F)(F)C(F)(F)C(F)(F)C(F)(F)CCI [1-Iodo-1H,1H,2H,2H-perfluorononane]; details: in DMSO
Method: as §1

[14] = compound: O=C(O)C(F)(F)OC(F)(F)C(F)(F)OC(F)(F)C(F)(F)C(F)(F)C(F)(F)F [Perfluoro-3,6-dioxadecanoic acid]; details: 2200 nM; in DMSO
Method: as §1

[15] = compound: O=S(=O)(Cl)C(F)(F)C(F)(F)C(F)(F)C(F)(F)C(F)(F)C(F)(F)C(F)(F)C(F)(F)F [Perfluoro-1-octanesulfonyl chloride]; details: 2200 nM; in DMSO
Method: as §1

[16] = compound: O=C(O)C=CC(F)(C(F)(F)F)C(F)(F)F [3-(Perfluoroisopropyl)-2-propenoic acid]; details: in DMSO
Method: as §1

[17] = compound: NC(=O)C(F)(F)C(F)(F)C(F)(F)C(F)(F)C(F)(F)C(F)(F)C(F)(F)F [Perfluorooctanamide]; details: 2200 nM; in DMSO
Method: as §1

[18] = compound: O=C(O)C(F)(F)C(F)(F)F [Perfluoropropanoic acid]; details: 2200 nM; in DMSO
Method: as §1

Test System | level (log10) [1] | level (log10) ([2]; 370 nM) | level (log10) ([2]; 1100 nM) | level (log10) ([2]; 3300 nM) | level (log10) ([2]; 10000 nM) | level (log10) [3] | level (log10) [4] | level (log10) [5] | level (log10) ([6]; 740 nM) | level (log10) ([6]; 2200 nM) | level (log10) [7] | level (log10) [8] | level (log10) [9] | level (log10) ([10]; 740 nM) | level (log10) ([10]; 2200 nM) | level (log10) ([10]; 6700 nM) | level (log10) ([10]; 20000 nM) | level (log10) [11] | level (log10) [12] | level (log10) ([13]; 740 nM) | level (log10) ([13]; 2200 nM) | level (log10) ([13]; 6700 nM) | level (log10) ([13]; 20000 nM) | level (log10) [14] | level (log10) [15] | level (log10) ([16]; 2200 nM) | level (log10) ([16]; 6700 nM) | level (log10) ([16]; 20000 nM) | level (log10) ([16]; 60000 nM) | level (log10) [17] | level (log10) [18]
SAg:PBMC Cytotoxicity | 0.015 ± 0.082 | -0.102 ± 0.023 | -0.233 ± 0.016 | -0.266 ± 0.02 | -0.268 ± 0.076 | -0.0205 ± 0.059 | -0.0075 ± 0.0078 | -0.03 ± 0.0099 | 0.006 ± 0.013 | 0.006 ± 0.013 | -0.013 ± 0.059 | -0.008 ± 0.027 | 0.003 ± 0.014 | 0.0065 ± 0.016 | 0.0155 ± 0.022 | -0.0165 ± 0.028 | 0.0265 ± 0.026 | 0.0105 ± 0.044 | 0.018 ± 0.057 | 0.029 ± 0.0014 | -0.02 ± 0.0042 | -0.005 ± 0.045 | 0.0205 ± 0.035 | 0.005 ± 0.016 | -0.003 ± 0.038 | 0.003 ± 0.055 | -0.0035 ± 0.0078 | 0.0015 ± 0.0035 | -0.005 ± 0.017 | 0.0115 ± 0.011 | 0.017 ± 0.047
SAg:Proliferation | 0.0255 ± 0.11 | -0.072 ± 0.09 | -0.248 ± 0.083 | -0.364 ± 0.13 | -0.473 ± 0.35 | 0.032 ± 0.0099 | 0.0315 ± 0.028 | -0.0225 ± 0.022 | 0.0075 ± 0.088 | -0.0245 ± 0.054 | -0.0035 ± 0.046 | 0.003 ± 0.016 | 0.0235 ± 0.0092 | 0.0265 ± 0.026 | -0.026 ± 0.055 | 0.0055 ± 0.043 | -0.0105 ± 0.026 | -0.0135 ± 0.079 | -0.013 ± 0.076 | 0.0355 ± 0.066 | 0.018 ± 0.03 | -0.0025 ± 0.063 | -0.0055 ± 0.074 | 0.035 ± 0.0071 | 0.038 ± 0.073 | 0.0055 ± 0.029 | 0.009 ± 0.016 | -0.008 ± 0.037 | 0.008 ± 0.04 | 0 ± 0.055 | -0.048 ± 0.054
SAg:SRB | 0.01 ± 0.0099 | -0.0025 ± 0.016 | -0.0415 ± 0.0092 | -0.066 ± 0.0028 | -0.065 ± 0.013 | -0.0115 ± 0.0078 | -0.021 ± 0.0014 | 0.0005 ± 0.005 | 0.0045 ± 0.019 | 0.0005 ± 0.00071 | 0.004 ± 0.0085 | -0.0155 ± 0.005 | -0.004 ± 0.0071 | 0.0045 ± 0.0064 | 0.0005 ± 0.0064 | -0.007 ± 0.0042 | 0.0025 ± 0.0021 | 0.0035 ± 0.015 | -0.005 ± 0.02 | 0.011 ± 0.011 | 0.016 ± 0.0028 | 0.0175 ± 0.005 | 0.031 ± 0.017 | -0.0145 ± 0.0078 | -0.002 ± 0.0042 | -0.0035 ± 0.012 | -0.001 ± 0.0042 | -0.007 ± 0.025 | -0.0065 ± 0.028 | 0.006 ± 0.0099 | -0.017 ± 0.0099
lMphg:CCL2/MCP-1 | -0.005 ± 0.027 | -0.008 ± 0.0071 | 0.0125 ± 0.0078 | 0.0295 ± 0.035 | 0.0535 ± 0.0021 | -0.0065 ± 0.021 | 0.005 ± 0.041 | 0.0275 ± 0.053 | 0.031 ± 0.02 | 0.0355 ± 0.043 | -0.02 ± 0.0014 | 0.0205 ± 0.0092 | -0.038 ± 0.048 | 0.037 ± 0.027 | 0.026 ± 0.0028 | 0.009 ± 0.0085 | 0.018 ± 0.02 | -0.011 ± 0.0071 | -0.011 ± 0.016 | 0.0075 ± 0.029 | -0.01 ± 0.0042 | -0.014 ± 0.0071 | 0.0385 ± 0.032 | -0.054 ± 0.047 | 0.001 ± 0.013 | 0.0055 ± 0.012 | -0.023 ± 0.014 | -0.0275 ± 0.011 | 0.006 ± 0.03 | 0.021 | -0.022 ± 0.03
lMphg:CCL3/MIP-1alpha | 0.0045 ± 0.0064 | 0.0285 ± 0.016 | 0.014 ± 0.011 | -0.0165 ± 0.026 | -0.06 ± 0.021 | -0.0075 ± 0.00071 | 0.03 ± 0.038 | 0.024 ± 0.057 | -0.016 ± 0.028 | 0.0265 ± 0.013 | 0.001 ± 0.023 | 0.0065 ± 0.033 | -0.0345 ± 0.046 | 0.011 ± 0.02 | 0.0165 ± 0.016 | 0.0225 ± 0.023 | 0.0175 ± 0.049 | -0.0095 ± 0.019 | -0.048 ± 0.0042 | 0.0085 ± 0.028 | -0.01 ± 0.018 | -0.001 | 0.045 ± 0.033 | -0.0195 ± 0.064 | -0.0315 ± 0.013 | -0.0085 ± 0.015 | -0.031 ± 0.018 | -0.0285 ± 0.016 | -0.0125 ± 0.016 | -0.016 ± 0.014 | 0.024 ± 0.038
lMphg:CD40 | -0.0185 ± 0.005 | 0.015 ± 0.023 | 0.0005 ± 0.036 | 0.005 ± 0.042 | -0.357 ± 0.028 | -0.034 ± 0.0042 | -0.046 ± 0.083 | -0.0045 ± 0.012 | 0.0175 ± 0.026 | 0.0005 ± 0.0064 | 0.0105 ± 0.0064 | -0.004 ± 0.0085 | 0.009 ± 0.011 | 0.0205 ± 0.005 | 0.0175 ± 0.042 | -0.0175 ± 0.052 | -0.0365 ± 0.046 | -0.0065 ± 0.0092 | -0.01 ± 0.034 | -0.01 ± 0.038 | -0.0015 ± 0.028 | -0.0065 ± 0.00071 | -0.0225 ± 0.028 | -0.0295 ± 0.016 | -0.0065 ± 0.012 | -0.0035 ± 0.012 | -0.0395 ± 0.053 | -0.01 ± 0.025 | -0.0045 ± 0.019 | -0.0015 ± 0.00071 | 0.0055 ± 0.026
lMphg:CD62E/E-Selectin | -0.0105 ± 0.012 | 0.016 ± 0.0014 | 0.0715 ± 0.011 | 0.084 ± 0.024 | 0.118 ± 0.012 | -0.0065 ± 0.011 | 0.01 | -0.019 ± 0.018 | -0.0025 ± 0.0092 | 0.0035 ± 0.0021 | 0.001 ± 0.024 | 0.042 | 0.013 ± 0.025 | 0.0135 ± 0.022 | -0.0155 ± 0.028 | 0.016 ± 0.014 | 0.0355 ± 0.0078 | 0.0125 ± 0.022 | -0.0065 ± 0.013 | 0.0155 ± 0.0078 | 0.0105 ± 0.00071 | 0.016 ± 0.02 | 0.001 ± 0.0099 | 0.0025 ± 0.019 | -0.017 ± 0.0099 | 0.0055 ± 0.018 | -0.0045 ± 0.012 | -0.002 ± 0.0099 | 0.0205 ± 0.0035 | 0.029 ± 0.048 | 0.0075 ± 0.018
